## Primary screen of a compound library

The filed quantity is “Percent Effect” (%). The record does not define 0% and 100%; most values in the screen are far below 50% and negative numbers occur (in some assays of this library far below -100). Compounds were drawn at random from those tested, without regard to their results. Two or more numbers in one place are separate tests of the same structure; such repeats can differ widely.

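Viability assay of Plasmodium falciparum sporozoites; the read-out is not stated. The concentration is filed as 10 mM, unlikely as a test dose, so the dose is not known. Higher reads as lower viability (inferred: compounds with an IC50 in retests scored well above the rest). Strong results were mostly tested again. Size under these conditions: about 34,000 compounds, about 280 of them at 50% or above in at least one test.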

{"smiles": "CCc1cnc(N2CC3(CCN(C(=O)c4ccoc4)C3)C2)nc1", "Percent Effect": 6.107}
{"smiles": "COCCO[C@H]1CCN(C(=O)c2ccc[nH]2)[C@H]1Cc1ccncc1", "Percent Effect": -17.19}
{"smiles": "NC(=O)NC(CC(=O)N1CCc2sccc2C1)c1cccc(Br)c1", "stereo": "stereo not drawn", "Percent Effect": 1.97}
{"smiles": "CCn1cnnc1CNC(=O)c1cc(Cl)ccc1I", "Percent Effect": -2.692}
{"smiles": "Cc1cccc(C)c1C(=O)N1C[C@@H](CN2CCOCC2)[C@@H](CO)C1", "Percent Effect": -0.9649}
{"smiles": "[H][C@]12CC[C@@H](Nc3cccnn3)[C@@]1([H])CN(Cc1ccc3cc[nH]c3c1)C2", "Percent Effect": 15.85}
{"smiles": "CC(C)(C)C(=O)NCCn1ccc(-c2ccncc2)n1", "Percent Effect": -22.79}
{"smiles": "CC1CCc2n[nH]c(C(=O)NCCCc3ccco3)c2C1", "stereo": "stereo not drawn", "Percent Effect": -1.34}
{"smiles": "COCC1Cn2nnc(-c3cnn(C)c3)c2CN1Cc1ccsc1.O=C(O)C(F)(F)F", "stereo": "stereo not drawn", "Percent Effect": -3.61}
{"smiles": "O=C(O)C(F)(F)F.[H][C@@]12CN(C(=O)CCOC)C[C@]1([H])C(=O)N(Cc1cccnc1)C2", "Percent Effect": -2.539}
{"smiles": "CC(C)c1nnc2n1CCN(C(=O)CN1CCc3sccc3C1)C2", "Percent Effect": 0.9893}
{"smiles": "[H][C@@]12CCN[C@]1([H])CN(S(=O)(=O)c1cccc(Cl)c1)C2", "Percent Effect": "-14.06 and -22.22 and 10.44"}
{"smiles": "O=C(O)c1cc(NS(=O)(=O)c2cccc(Cl)c2F)ccc1Cl", "Percent Effect": -0.9812}
{"smiles": "N#Cc1ccc(CN2CCCCC2Cn2cccn2)cc1", "stereo": "stereo not drawn", "Percent Effect": 14.63}
{"smiles": "c1ccc(Cn2cc(CNCC3CCCN3c3cccnn3)cn2)cc1", "stereo": "stereo not drawn", "Percent Effect": 10.19}
{"smiles": "CCc1noc(C)c1C(=O)N1CCCC1Cn1nc(C)cc1C", "stereo": "stereo not drawn", "Percent Effect": -7.579}
{"smiles": "COc1c(NS(=O)(=O)c2ccc(F)c(C)c2)c(C)nn1C", "Percent Effect": 3.905}
{"smiles": "Nc1cc2c(nn1)CCN(C(=O)CCC1CCCCC1)C2", "Percent Effect": -1.019}
{"smiles": "Cc1ccc(NC2CCN(C(=O)COc3cccc(F)c3)CC2)nn1", "Percent Effect": 20.52}
{"smiles": "CCC1CN(C(=O)c2ccc(O)cn2)CCC(=O)N1Cc1ccccc1", "stereo": "stereo not drawn", "Percent Effect": "75.08 and 82.46"}
{"smiles": "Cc1ccc(NC2CCN(C(=O)c3cc(C)sc3C)CC2)nn1", "Percent Effect": 2.366}
{"smiles": "Cc1cc(C)c(CNC(=O)c2ccc3c(c2)CCC3)c(=O)[nH]1", "Percent Effect": "-8.946 and 20.2 and -11.07"}
{"smiles": "Cc1cccc(C(=O)N(C)C2CCN(c3ccccn3)CC2)c1C", "Percent Effect": 2.279}
{"smiles": "Cc1nccc(-c2cccc(NCC(=O)N3CCOC(C)C3)c2)n1", "stereo": "stereo not drawn", "Percent Effect": 3.86}
{"smiles": "CS(=O)(=O)N1CCOCC2(CCN(c3cnccn3)CC2)C1", "Percent Effect": 2.3}
{"smiles": "CN(CCC#N)C(=O)CSc1cc(F)ccc1F", "Percent Effect": 23.04}
{"smiles": "Cc1ccoc1C(=O)N1Cc2c(Cn3ccnc3)nn(C)c2C1.O=C(O)C(F)(F)F", "Percent Effect": 7.899}
{"smiles": "Cc1ccc(CN2CCCC(c3nn(C)c4nccnc34)C2)s1", "stereo": "stereo not drawn", "Percent Effect": 7.327}
{"smiles": "Cc1cnc(CN2CCCC2c2noc(C)n2)cn1", "stereo": "stereo not drawn", "Percent Effect": -16.67}
{"smiles": "CN(Cc1nnc(C2CC2)o1)C1CCCN(c2cccnn2)C1", "stereo": "stereo not drawn", "Percent Effect": 9.007}
{"smiles": "O=C(O)C(F)(F)F.O=C(O)C(F)(F)F.[H][C@]12CN(C)C[C@@]1(C(=O)O)CCCN(Cc1ccc(C)s1)C2", "Percent Effect": 13.86}
{"smiles": "[H][C@]12CCN(Cc3ccc4c(c3)OCO4)[C@@]1([H])CCN2CCN(C)C", "Percent Effect": 7.699}
{"smiles": "[H][C@@]12CCN(S(=O)(=O)N(C)C)C[C@@]1([H])O[C@H](c1ccnc(C)n1)C2", "Percent Effect": -1.14}
{"smiles": "CC(=O)N1CCCN(C(=O)NCCCNS(C)(=O)=O)CC1", "Percent Effect": -1.887}
{"smiles": "c1csc(-c2nc(CN3CCOC(Cn4cccn4)C3)co2)c1", "stereo": "stereo not drawn", "Percent Effect": -4.8}
{"smiles": "COCCC(=O)N1CCC(c2noc3nc(C)cc(C(F)(F)F)c23)CC1", "Percent Effect": -7.701}
{"smiles": "[H][C@]12CC[C@](O)(CC1)C(CN1CCOCC1)N2Cc1ccc(F)cc1", "stereo": "stereo partly drawn", "Percent Effect": -36.24}
{"smiles": "COCC1COCCC12CCN(C(=O)CCOc1ccccc1)CC2", "stereo": "stereo not drawn", "Percent Effect": -15.33}
{"smiles": "CC1(C)OC(=O)N(CC(=O)N2CCC(c3ccccc3Cl)C2)C1=O", "stereo": "stereo not drawn", "Percent Effect": "22.5 and -0.6241"}
{"smiles": "O=C(Cc1ccc2c(c1)CCCC2)NCCNc1cnccn1", "Percent Effect": 19.3}
{"smiles": "O=C(O)C(F)(F)F.O=C(c1ccccn1)N1CCC2(CC1)COC(COCC1CC1)C2", "stereo": "stereo not drawn", "Percent Effect": -11.68}
{"smiles": "CCc1ccc(C(=O)O)cc1S(=O)(=O)Nc1ccc2c(c1)OCCO2", "Percent Effect": "59.56 and 1.151 and 5.09"}
{"smiles": "OC(c1ccccc1)C1CCN(Cc2csc(-c3ncccn3)n2)CC1", "stereo": "stereo not drawn", "Percent Effect": 9.92}
{"smiles": "CCS(=O)(=O)N1C[C@@H](O)[C@H](N2CCc3ccccc3C2)C1", "Percent Effect": 18.02}
{"smiles": "Cc1cc(C#N)ccc1S(=O)(=O)NCc1cnc(N(C)C)n1C", "Percent Effect": -10.43}
{"smiles": "O=C(O)C(F)(F)F.[H][C@@]12COC[C@H](C(=O)N3CCOCC3)[C@]1([H])CN(Cc1c(C)noc1C)C2", "Percent Effect": -1.117}
{"smiles": "CCN(CC)S(=O)(=O)CCNC(=O)c1cc2cccc(F)c2o1", "Percent Effect": -9.769}
{"smiles": "CN(Cc1ccc2c(c1)OCO2)Cc1nc(Cc2ccccc2)no1", "Percent Effect": -0.8881}
{"smiles": "CCC(CO)NC(=O)Nc1cc(F)ccc1SCC(F)F", "stereo": "stereo not drawn", "Percent Effect": -10.99}
{"smiles": "Cc1cc(C)n(C2CCCN(C(=O)c3ccc(F)cc3F)C2)n1", "stereo": "stereo not drawn", "Percent Effect": -22.55}
{"smiles": "CC(c1ccncc1)N(CCN(C)C)C(=O)Nc1ccc(Cl)c(Cl)c1", "stereo": "stereo not drawn", "Percent Effect": -3.361}
{"smiles": "CC(=O)N1CCCN(C(=O)NCCNc2ccccn2)CC1", "Percent Effect": -3.307}

For reference, 6 entries once more:

{"smiles": "Cc1nccc(-c2cccc(NCC(=O)N3CCOC(C)C3)c2)n1", "stereo": "stereo not drawn", "Percent Effect": 3.86}
{"smiles": "CN(CCC#N)C(=O)CSc1cc(F)ccc1F", "Percent Effect": 23.04}
{"smiles": "CCn1cnnc1CNC(=O)c1cc(Cl)ccc1I", "Percent Effect": -2.692}
{"smiles": "Cc1cnc(CN2CCCC2c2noc(C)n2)cn1", "stereo": "stereo not drawn", "Percent Effect": -16.67}
{"smiles": "CS(=O)(=O)N1CCOCC2(CCN(c3cnccn3)CC2)C1", "Percent Effect": 2.3}
{"smiles": "O=C(O)C(F)(F)F.O=C(O)C(F)(F)F.[H][C@]12CN(C)C[C@@]1(C(=O)O)CCCN(Cc1ccc(C)s1)C2", "Percent Effect": 13.86}

From ChEMBL document CHEMBL3988442, “University of Dundee, Small-Polar-MMV Screening Library” (2021).